This is one part of the list. Further columns of the screen follow, without active or inactive calls. The list favours compounds with an active or inconclusive main result. Potencies come from curve fits of mixed quality, noted in brackets.
Assay: qHTS Assay to Find Inhibitors of Chronic Active B-Cell Receptor Signaling
Conditions: ABC-DLBCL IkBa-CBG/CBR reporter, luminescence ratio (green luciferase fused to IkBa over red control in TMD8 lymphoma cells), 4 h
Method in brief: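 TMD8 ABC-DLBCL cells carrying doxycycline-inducible green luciferase fused to IkappaBalpha plus unfused red luciferase were exposed to compounds (up to 46 uM) for 4 hrs at 37C. Activity came from the overlap-corrected green/red luminescence ratio.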

[1] = measured here: CBR red luminescence, cell number
[2] = measured here: IkBa-CBG green luminescence

Compound | AC50 [1] | AC50 [2]
Cc1csc(NC(=O)CSc2nnc(-c3ccoc3C)o2)n1 | 29.1 µM [falling, single point] | 
Cc1nnc(SCC(=O)N(C)C2CCCCC2)n1C | 29.1 µM [rising, single point] | 
Nc1ccccc1Sc1nc2ccccc2[nH]1 | 12.6 µM [falling, partial curve] | 35.5 µM [rising, partial curve, poor fit]
COc1ccc2c(c1)C(=O)N(c1ccccc1OC)C(=O)C2(C)C | 35.5 µM [rising, single point] | 
C#CCOc1ccc2c(C)cc(=O)oc2c1 | 3.55 µM [rising, full curve, poor fit] | 
O=C(NCc1ccccc1)C1=C[C@@H](c2csc3ccccc23)C[C@@H](OCCCCO)O1 | 35.5 µM [falling, single point] | 
Cc1ccc(NC(=S)N2CCC(c3ccccc3)C2)c(Cl)c1 (stereo not given) | 0.355 µM [rising, full curve, poor fit] | 
NNC(=O)c1ccc([N+](=O)[O-])c(CS(=O)(=O)c2ccc(Cl)cc2)c1 | 2.82 µM [rising, partial curve, poor fit] | 
CC(=O)Nc1cccc(NC(=O)Nc2ccc(C(C)=O)cc2)c1 | 13 µM [falling, partial curve, poor fit] | 
O=C(O)C(Cc1c[nH]c2ccccc12)N1Cc2ccccc2C1=O (stereo not given) | 11.2 µM [falling, partial curve] | 
O=C(NC(=S)NCC1CCCO1)c1ccccc1 (stereo not given) | 20.6 µM [rising, single point] | 
N#C/C(=C\c1c(N2CCCCC2)nc2ccccn2c1=O)S(=O)(=O)c1ccccc1 | 1 µM [falling, full curve, poor fit] | 2.82 µM [rising, full curve]
Cc1ccc(S(=O)(=O)C2C(=O)NC3(C)CC2c2ccccc2O3)cc1 (stereo not given) | 29.1 µM [falling, single point] | 
CCC(C)NC(=O)c1cc(-c2ccc(OC)cc2)on1 (stereo not given) | 8.2 µM [falling, partial curve, poor fit] | 
CN(C)c1ccc(/C=N/Nc2ccc(-n3ccnc3)nn2)cc1 | 29.1 µM [rising, single point] | 
COc1ccc(NC(=S)N(CCO)Cc2cc3c(C)cc(C)cc3[nH]c2=O)cc1 | 28.2 µM [falling, single point] | 
CCOC(=O)/C=C/C(=O)OCC(=O)Nc1ccc([N+](=O)[O-])cc1 | 22.4 µM [rising, single point] | 
c1ccc2c(c1)CNC1(CCCCC1)C2 | 2.31 µM [rising, partial curve, poor fit] | 

2 entries from above, as comma-separated lines.
Compound,AC50 [1],AC50 [2]
Cc1ccc(NC(=S)N2CCC(c3ccccc3)C2)c(Cl)c1 (stereo not given),"0.355 µM [rising, full curve, poor fit]",
NNC(=O)c1ccc([N+](=O)[O-])c(CS(=O)(=O)c2ccc(Cl)cc2)c1,"2.82 µM [rising, partial curve, poor fit]",
